# Reference: publication PMC12670160, “A drug-repurposing screen of FDA- and EMA-approved drugs identifies two NF-κB inhibitors active against eumycetoma” (Journal of Antimicrobial Chemotherapy, 2025)
# Where a name gives a salt, the structure may show the parent alone. About 130 (2.5%) of roughly 5,300 compounds showed an effect of 50% or more. The list shows a part of the results. Square brackets hold non-standard residues; d marks the D form. Peptide text beside a SMILES is read from it. NMeF = CN[C@@H](Cc1ccccc1)C(=O)O
# Tested on: M. mycetomatis strain mm55
# Details: primary screen, metabolic activity vs growth control; 96 h, 2 µM; inhibitor
row,Structure (SMILES),% viability
1,"CCN(C(=O)c1c(O)c2c(Cl)cccc2n(C)c1=O)c1ccccc1 [ONC0005087, laquinimod abr215062]",73.14%
2,"NC1CCN(c2cccc(Cl)n2)CC1 [ONC0000810, sr57227a]",65.46%
3,"Cc1cccc(-c2[nH]c(C(C)(C)C)nc2-c2ccc3c(c2)OCO3)n1 [ONC0005219, sb505124]",129%
4,"CC(NC(=O)c1ccccc1/N=C/c1c(O)ccc2ccccc12)c1ccccc1 (stereo not drawn) [ONC0000958, sirtinol]",77.53%
5,"CC(C)(O)C(=O)Nc1ccc([N+](=O)[O-])c(C(F)(F)F)c1 [ONC0003818, 2hydroxyflutamide]",68.04%
6,"CCOc1ccccc1C(=O)O [ONC0004472, 2ethoxybenzoicacid]",80.97%
7,"NC(Cc1c[nH]c2ccc(O)cc12)C(=O)O (stereo not drawn) [ONC0004746, 5hydroxytryptophan 5htp]",110.5%
8,"Cc1ccc2c(c1)C1CN(C)CCC1N2 (stereo not drawn) [ONC0003732, stobadine]",111.5%
9,"CC(C)CC(=O)Nc1[nH]nc2c1CN(C(=O)C1CCN(C)CC1)C2(C)C [ONC0004869, pha793887]",94.75%
10,"COc1cc(C(=O)NCc2ccc(OCCN(C)C)cc2)cc(OC)c1OC [ONC0000535, trimethobenzamide hydrochloride]",87.2%
11,"CCCN1CCCC[C@H]1C(=O)Nc1c(C)cccc1C [ONC0004565, ropivacaine hcl]",78.48%
12,"NCCCCCC(O)(P(=O)(O)O)P(=O)(O)O [ONC0002151, neridronate sodium salt]",89.33%
13,"Nc1n[n+]([O-])c2ccccc2[n+]1[O-] [ONC0001131, tirapazamine]",75.1%
14,"c1cnc(N2CCN(Cc3ccc4c(c3)OCO4)CC2)nc1 [ONC0000947, piribedil]",72.64%
15,"C[C@@H](Nc1cc(F)cc(F)c1)c1cc(C(=O)N(C)C)cc2c(=O)cc(N3CCOCC3)oc12 [ONC0004558, azd8186]",76.07%
16,"C[C@](N)(Cc1ccc(O)c(O)c1)C(=O)O [ONC0000384, methyldopa]",65.99%
17,"COC(=O)/C=C/c1cccc(N(Cc2ccc(-c3ccc(N(C)C)cc3)cc2)C(=O)C2CCCCC2)c1 [ONC0003149, fexaramine]",78.38%
18,"CCCC1C(=O)N2C(N(C)C)=Nc3ccc(C)cc3N2C1=O (stereo not drawn) [ONC0002278, azapropazone]",76.7%
19,"COc1cc(N2CCC(O)CC2)ccc1Nc1cc(Nc2ccccc2S(=O)(=O)C(C)C)c2cc[nH]c2n1 [ONC0001327, mps1in1]",116.6%
20,"COc1cc(C(=O)N2CCC(N3CCN(C)CC3)CC2)ccc1Nc1ncc2c(n1)N(C)c1ccccc1C(=O)N2C [ONC0000864, lrrk2in1]",80.6%

row,Structure (SMILES),% viability
1,Clc1ccc(C(Cn2ccnc2)OCc2ccsc2Cl)c(Cl)c1 (stereo not drawn) [Tioconazole],3.335%
2,"C[C@H]1c2cccc(O)c2C(=O)C2=C(O)[C@]3(O)C(=O)C(C(N)=O)=C(O)[C@@H](N(C)C)[C@@H]3[C@@H](O)[C@@H]21 [ONC0000927, doxycycline hyclate]",70.17%
3,"COc1cc(Br)c(S(=O)(=O)Nc2ccc(C(F)(F)F)c(O[C@@H]3CCN(C)C3)c2)cc1OC [ONC0000118, sb706375]",88.32%
4,"Cc1[nH]c2ccc(F)cc2c1-c1nc2c3cccnc3c3ncccc3c2[nH]1 [ONC0001815, apto253]",95.12%
5,"CSCC[C@H](NC(=O)[C@H](CC(C)C)NC(=O)[C@@H](Cc1c[nH]c2ccccc12)NC(=O)[C@H](Cc1ccccc1)N(C)C(=O)[C@@H](Cc1c[nH]c2ccccc12)NC(=O)[C@@H](N)CCCNC(=N)N)C(N)=O [ONC0003409, antagonistg] (H-R[dW][NMeF][dW]LM-NH2)",66.36%
6,"Cc1ccc(-c2cn3c4c(sc3n2)CCCC4)cc1 [ONC0002473, pifithrincyclic]",114.3%
7,"CCCC(=O)c1cc(F)ccc1OCC(O)CNC(C)(C)C (stereo not drawn) [ONC0005408, butofilolol]",80.64%
8,"CS(=O)(=O)c1ccc(-c2cn3ccccc3n2)cc1 [ONC0002352, zolimidine]",42.05%
9,"CCCCCCCCCCCCOCCOCCOCCOCCOCCOCCOCCOCCOCCO [ONC0002139, polidocanol]",78.72%
10,"Cc1c(C(=O)NN2CCCCC2)nn(-c2ccc(Cl)cc2Cl)c1-c1ccc(Cl)cc1 [ONC0005115, rimonabant sr141716]",138.4%
11,"COc1nc2ccc(Br)cc2cc1[C@@H](c1ccccc1)[C@@](O)(CCN(C)C)c1cccc2ccccc12 [ONC0005571, bedaquiline]",85.46%
12,"CNc1cc2[nH]c(=O)n(-c3ccc(NC(=O)NS(=O)(=O)c4ccc(Cl)s4)cc3)c(=O)c2cc1F [ONC0000251, elinogrel]",58.04%
13,"CC(C)=CCC[C@](C)(O)[C@H]1CC[C@]2(C)[C@@H]1[C@H](O)C[C@@H]1[C@@]3(C)CC[C@H](O)C(C)(C)[C@@H]3CC[C@]12C [ONC0000922, 20sprotopanaxadiol]",94.76%
14,"COc1cc2c(Nc3ccc(Br)cc3F)ncnc2cc1OCC1CCN(C)CC1 [ONC0004515, vandetanib zd6474]",76.73%
15,"CCCCCCCCCCCCCC[C@@H](O)[C@@H](O)[C@@H](N)CO [ONC0003465, phytosphingosine]",45.49%
16,"CCOC(=O)COc1ccc2c(=O)cc(-c3ccccc3)oc2c1 [ONC0004225, efloxate]",72.53%
17,"Cc1ccc(NC(=O)c2ccc(CN3CCN(C)CC3)cc2)cc1Nc1nccc(-c2cccnc2)n1 [ONC0004927, imatinib mesylate sti571]",86.58%
18,"Cc1cc2nc3c(=O)[nH]c(=O)nc-3n(C)c2cc1C=O [ONC0004114, ro082750]",103.6%
19,"CC(C)C(=O)Oc1ccc(CO)cc1[C@H](CCN(C(C)C)C(C)C)c1ccccc1 [ONC0004986, fesoterodine fumarate]",109.4%
20,"CSc1cc2c(cc1C(F)(F)F)N(C(=O)Nc1cccnc1)CC2 [ONC0003013, sb221284]",93.21%

# Sorted by count of non-hydrogen atoms (falling): 4 of the compounds above
row,Structure (SMILES),% viability
15,"C[C@@H](Nc1cc(F)cc(F)c1)c1cc(C(=O)N(C)C)cc2c(=O)cc(N3CCOCC3)oc12 [ONC0004558, azd8186]",76.07%
4,"Cc1[nH]c2ccc(F)cc2c1-c1nc2c3cccnc3c3ncccc3c2[nH]1 [ONC0001815, apto253]",95.12%
7,"NC(Cc1c[nH]c2ccc(O)cc12)C(=O)O (stereo not drawn) [ONC0004746, 5hydroxytryptophan 5htp]",110.5%
6,"CCOc1ccccc1C(=O)O [ONC0004472, 2ethoxybenzoicacid]",80.97%

# Looked up above.
# % viability with `CSc1cc2c(cc1C(F)(F)F)N(C(=O)Nc1cccnc1)CC2` [ONC0003013, sb221284] reads 93.21%
# % viability with `c1cnc(N2CCN(Cc3ccc4c(c3)OCO4)CC2)nc1` [ONC0000947, piribedil] reads 72.64%

# Remaining list, next part:

row,Structure (SMILES),% viability
1,"N=C(N)c1ccc(N2CCN(C3CCN(CC(=O)O)CC3)CC2)cc1 [ONC0001428, gr144053]",85.04%
2,"Cc1oc(-c2ccccc2)nc1CCOc1ccc(CC2SC(=O)NC2=O)c2sccc12 (stereo not drawn) [ONC0000030, edaglitazone]",100.5%
3,"CCc1cc2c(cc1N1CCC(N3CCOCC3)CC1)C(C)(C)c1[nH]c3cc(C#N)ccc3c1C2=O [ONC0004985, ch5424802]",99.82%
4,"CCc1c2c(nc3ccc(O)cc13)-c1cc3c(c(=O)n1C2)COC(=O)[C@]3(O)CC [ONC0003633, sn38]",66%
5,"Oc1noc2c1CCNC2 [ONC0001438, gaboxadol]",55.34%
6,"CCOC(=O)O[C@]1(C(=O)OCCl)CC[C@H]2[C@@H]3CCC4=CC(=O)C=C[C@]4(C)[C@H]3[C@@H](O)C[C@@]21C [ONC0004855, loteprednol etabonate]",113.8%
7,"Cc1ncc(CN2CC=C(c3ccccc3)CC2)c(N)n1 [ONC0003615, ro105824]",72.51%
8,"COc1ccc2c(c1)c(CC(=O)O)c(C)n2C(=O)c1ccc(Cl)cc1 [ONC0000394, indomethacin]",69.22%
9,"CCCC[N+]1(C)[C@@H]2C[C@@H](OC(=O)[C@@H](CO)c3ccccc3)C[C@H]1[C@@H]1O[C@@H]12 (stereo partly drawn) [ONC0005197, butylscopolamine bromide scopolamine butylb]",109.1%
10,"CNC(=O)c1cc(Oc2ccc(NC(=O)Nc3cc(C(C)(C)C)nn3-c3ccc4ncccc4c3)c(F)c2)ccn1 [ONC0004608, dcc2036 rebastinib]",105.1%
11,"OC[C@H]1O[C@H](O[C@]2(CCl)O[C@H](CCl)[C@@H](O)[C@@H]2O)[C@H](O)[C@@H](O)[C@H]1Cl [ONC0004000, sucralose]",82.48%
12,"CCC/N=C1\S/C(=C\c2ccc(OC[C@H](O)CO)c(Cl)c2)C(=O)N1c1ccccc1C [ONC0001053, ponesimod]",79.17%
13,"O=C(C1CCCCC1)N1CC(=O)N2CCc3ccccc3C2C1 (stereo not drawn) [ONC0000502, praziquantel]",91.73%
14,"Cc1oc(-c2ccccc2)nc1CCC(=O)c1ccc(CC2SC(=O)NC2=O)cc1 (stereo not drawn) [ONC0003800, darglitazone]",110.3%
15,"O=S(=O)(O)c1ccc(O)cc1 [ONC0002572, 4phenolsulfonic acid sodium salt dihydrate]",87.37%
16,"C[C@]1(O)C[C@@H](c2nc(-c3ccc4ccc(-c5ccccc5)nc4c3)c3c(N)nccn32)C1 [ONC0004719, osi906 linsitinib]",125.6%
17,"C(=C\c1ccccc1)/CN1CCN(C(c2ccccc2)c2ccccc2)CC1 [ONC0003130, cinnarazine]",70.81%
18,"COc1ccc(C(=O)N2CCCC2=O)cc1 [ONC0003147, aniracetam]",64.68%
19,"CN(C)CCCC(=O)Nc1ccc(C(=O)Nc2cccc(Nc3ncc(Cl)c(-c4c[nH]c5ccccc45)n3)c2)cc1 [ONC0000993, thz1r]",83.26%
20,"O=C(Nc1ccccc1-c1cn2c(CN3CCNCC3)csc2n1)c1cnc2ccccc2n1 [ONC0004726, srt1720 hcl]",103.6%
